Experimental findings from the supplement of paper PMC12889115 are described below.

SMILES strings stand for the structures. The list shows a part of the results. These are raw signals, not scaled to a control.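 In the initial screen, polymyxin B was used at a concentration that permeabilizes Salmonella's outer membrane but not its inner membrane. Maximum growth was set by DMSO wells with or without polymyxin B. Since plates varied, data were ranked per plate, and compounds giving the lowest OD600 advanced as hits.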

For the test, the system named is Salmonella enterica serovar Typhimurium SL1344. In words: bacterial growth OD600 after 18 h with compound and polymyxin B; higher = more bacterial growth (less inhibition). The following applies: 50 µM, Mueller-Hinton broth.

Take `CCn1ccnc1CN1CCCC1C(=O)Nc1ccc(-c2cccc(F)c2)cc1` (stereo not given): the “bacterial growth OD600” value (polymyxin B 1 µg/mL) amounted to 0.018.
For the molecule `O=C(NCC(F)(F)F)c1coc(COc2ccccc2)n1`, for the setting “polymyxin B 0.75 µg/mL”, the “bacterial growth OD600” value is 0.791.
Turning to `Cc1ccc(C(=O)N2CCCC(N3CCN(c4ccccc4C)CC3)C2)cc1` (stereo not given), the “bacterial growth OD600” value (polymyxin B 1 µg/mL) stood at 0.817.
`CCn1ncc(CN(C)CC2CCCN(CCc3ccccc3OC)C2)c1C` (stereo not given): the “bacterial growth OD600” value (polymyxin B 1 µg/mL) was 0.904.
Regarding `CN(C)c1ncc2c(n1)CCCC2NC(=O)CN1CCCCC1` (stereo not given), the “bacterial growth OD600” value (polymyxin B 0.75 µg/mL) is 0.814.
Consider `COCc1nc2cc(NC(=O)Cc3ccccc3)cc(C(=O)N3CCCC(c4ccccc4)C3)c2n1C` (stereo not given), for which, for the setting “polymyxin B 0.75 µg/mL”, the “bacterial growth OD600” value is 0.688.
As for `Cn1ccnc1CN1CCC(C2CCN(c3ncccn3)CC2)C1` (stereo not given), the “bacterial growth OD600” value (polymyxin B 0.75 µg/mL) is 0.795.
Consider `CCN1CCN(C2(C(=O)N3CCCCO3)Cc3ccccc3C2)CC1`, for which the “bacterial growth OD600” value (polymyxin B 0.75 µg/mL) was found to be 0.913.
As to `COc1cc(-c2cnnc(NCCCN3CCCC3=O)n2)cc(OC)c1OC`, the “bacterial growth OD600” value (polymyxin B 1 µg/mL) worked out at 1.21.
Consider `CCN(CC)C(=O)C1CCN(C(=O)CC2(c3cccc(C(F)(F)F)c3)CC(=O)N(CC)C2=O)CC1` (stereo not given), for which, under “polymyxin B 0.75 µg/mL”, the “bacterial growth OD600” value came out at 0.77.
Take `OC(Cc1ccccc1)c1ccc2c(c1)CN(Cc1c[nH]nc1-c1ccccc1)CCO2` (stereo not given): for the setting “polymyxin B 0.75 µg/mL”, the “bacterial growth OD600” value is 0.667.
On to `CN(C)S(=O)(=O)NC1CC(=O)N(CC2CCCCC2)C1` (stereo not given), for which the “bacterial growth OD600” value (polymyxin B 1 µg/mL) was 0.874.
As to `COCCN(C(=O)c1ccc(OC2CCN(C(C)=O)CC2)c(OC)c1)C(C)C`, the “bacterial growth OD600” value (polymyxin B 1 µg/mL) was determined as 0.942.
Turning to `COc1ccccc1C(=O)Nc1ccc2c(c1)CN(C(=O)c1ccsc1)CC2`, where the note is “polymyxin B 1 µg/mL”, the “bacterial growth OD600” value is 0.657.
On the same count and under the same terms, with `CCOC(=O)C1(Cc2ccc(OC)cc2)CCN(C(=O)c2ccc3oc(C)cc3c2)CC1` the figure was 0.004; with `CCc1ccc(CN2CCC(Oc3cc(OC)ccc3C(=O)NCCOC)CC2)o1`, 0.999.
Still for that read-out and setting: with `COC(=O)CCC(=O)N1CCC2(CCCN(Cc3cccc(F)c3F)C2)C1` (stereo not given) the figure was 0.888.
For `CN(C(=O)c1cccs1)C(Cc1ccccc1F)C1CCN(Cc2cccc3cccnc23)CC1` (stereo not given), the “bacterial growth OD600” value (polymyxin B 0.75 µg/mL) is 0.784.
Turning to `O=C1CCC(CCNCc2cc3c(cc2Cl)OCO3)N1Cc1cccc(OC(F)(F)F)c1` (stereo not given), under “polymyxin B 0.75 µg/mL”, the “bacterial growth OD600” value is 0.784.
On to `CCOC(=O)C1(CC2CC2)CCN(C/C=C/c2ccccc2OC)CC1`, for which, where the note is “polymyxin B 1 µg/mL”, the “bacterial growth OD600” value is 0.864.
Turning to `C=CCO[C@H]1[C@H](NC(=O)COC)c2ccccc2C12CCN(C(=O)c1ccccc1SC)CC2`, for the setting “polymyxin B 0.75 µg/mL”, the “bacterial growth OD600” value was found to be 0.929.
With `Cc1ccc(CN2CCCC(CO)(Cc3ccccc3)C2)cc1C` (stereo not given), the “bacterial growth OD600” value (polymyxin B 1 µg/mL) is 0.883.
Take `CCOc1ccc2nc(N3CCCC(C(=O)N4CCC(OC)CC4)C3)nc(C)c2c1` (stereo not given): for the setting “polymyxin B 0.75 µg/mL”, the “bacterial growth OD600” value is 0.843.
Same read-out and setting: the result for `CCN1CCCC1CNC(=O)CCC1CCN(Cc2cn(CC)c3ccccc23)CC1` (stereo not given) reads 0.876.
As to `COc1ccc(OCC(O)CN2CCC(O)CC2)c(CNC2Cc3ccccc3C2)c1` (stereo not given), the “bacterial growth OD600” value (polymyxin B 1 µg/mL) is 1.04.
On to `CCOC(=O)C1(Cc2ccccc2Cl)CCN(Cc2cccc3c2OCO3)CC1`, for which, under “polymyxin B 1 µg/mL”, the “bacterial growth OD600” value amounted to 0.838.
As to `CCCCc1nc2cc(C(=O)NCc3nc(C)c[nH]3)ccc2o1`, the “bacterial growth OD600” value (polymyxin B 0.75 µg/mL) turned out to be 0.771.
As to `CCC(COC)NC(=O)C1CCCN(c2nc(C)c3ccc(S(C)(=O)=O)cc3n2)C1` (stereo not given), under “polymyxin B 0.75 µg/mL”, the “bacterial growth OD600” value amounted to 0.779.
Consider `CCOC(=O)C1(CCc2ccccc2)CCN(Cc2ccc(O)cc2)CC1`, for which the “bacterial growth OD600” value (polymyxin B 1 µg/mL) came to 0.869.
In the case of `Cc1ncc2c(c1CNC(=O)CSc1ncccn1)CCN(C(=O)c1cc3ccccc3o1)C2`, the “bacterial growth OD600” value (polymyxin B 0.75 µg/mL) was 0.879.
